Some of the results follow.
How the values were obtained:
Experiment in all cases: log2 fold change, soluble protein after heating vs DMSO (PISA); higher = thermal stabilisation; K562 lysate, 10 uM; active = over 0.2 and 3.5 SD of the protein, either way, in both replicates (recomputed)
nilotinib = compound: Cc1cn(-c2cc(NC(=O)c3ccc(C)c(Nc4nccc(-c5cccnc5)n4)c3)cc(C(F)(F)F)c2)cn1 [nilotinib]
Summary of the method: (§1)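 Thermal stability, expressed as log-two fold change relative to solvent controls, is given from duplicates. Crude K562 extract in PBS pH 7.4 with 1 mM MgCl2, at 1 mg/mL protein, was treated with 10 μM compound for 30 min and heated in aliquots for 3 min across 48°C-58°C. After pooling, adjustment to 0.5% NP-40 at 4°C and centrifugation at 21,000xg for 90 min, supernatant protein was measured by TMTpro 16plex LC-MS/MS with channel sums equalised.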

The chains behind the UniProt entries cited, without tags or fusion partners. Where a name states a change or a piece, a line headed by the entry shows the natural chain unless it says otherwise.
UniProt P62191: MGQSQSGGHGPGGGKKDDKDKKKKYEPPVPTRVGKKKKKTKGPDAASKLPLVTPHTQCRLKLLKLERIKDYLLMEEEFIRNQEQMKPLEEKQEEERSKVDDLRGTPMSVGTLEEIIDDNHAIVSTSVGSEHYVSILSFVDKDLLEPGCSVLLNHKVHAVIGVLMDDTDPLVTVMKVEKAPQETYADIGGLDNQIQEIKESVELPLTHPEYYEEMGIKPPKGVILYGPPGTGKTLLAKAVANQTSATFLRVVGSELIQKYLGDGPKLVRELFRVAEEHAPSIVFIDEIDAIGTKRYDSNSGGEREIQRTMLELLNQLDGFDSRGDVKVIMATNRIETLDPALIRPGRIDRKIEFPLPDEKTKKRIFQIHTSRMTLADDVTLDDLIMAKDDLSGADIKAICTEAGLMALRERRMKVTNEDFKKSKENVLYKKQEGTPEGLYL
UniProt O75475: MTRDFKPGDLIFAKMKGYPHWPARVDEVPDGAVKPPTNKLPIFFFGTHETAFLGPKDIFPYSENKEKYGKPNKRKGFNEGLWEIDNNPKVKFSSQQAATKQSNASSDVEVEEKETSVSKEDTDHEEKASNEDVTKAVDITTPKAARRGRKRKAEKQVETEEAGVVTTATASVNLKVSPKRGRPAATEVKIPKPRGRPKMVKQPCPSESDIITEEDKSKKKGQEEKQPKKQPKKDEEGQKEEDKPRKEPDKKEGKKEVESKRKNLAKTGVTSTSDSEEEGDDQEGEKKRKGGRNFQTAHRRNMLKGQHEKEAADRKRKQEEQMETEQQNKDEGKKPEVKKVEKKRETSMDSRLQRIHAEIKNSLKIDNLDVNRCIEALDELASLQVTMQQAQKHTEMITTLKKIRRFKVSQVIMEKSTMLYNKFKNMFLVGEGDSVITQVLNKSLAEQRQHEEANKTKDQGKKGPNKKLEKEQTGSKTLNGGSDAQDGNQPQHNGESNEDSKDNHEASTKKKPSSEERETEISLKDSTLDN
UniProt Q15397: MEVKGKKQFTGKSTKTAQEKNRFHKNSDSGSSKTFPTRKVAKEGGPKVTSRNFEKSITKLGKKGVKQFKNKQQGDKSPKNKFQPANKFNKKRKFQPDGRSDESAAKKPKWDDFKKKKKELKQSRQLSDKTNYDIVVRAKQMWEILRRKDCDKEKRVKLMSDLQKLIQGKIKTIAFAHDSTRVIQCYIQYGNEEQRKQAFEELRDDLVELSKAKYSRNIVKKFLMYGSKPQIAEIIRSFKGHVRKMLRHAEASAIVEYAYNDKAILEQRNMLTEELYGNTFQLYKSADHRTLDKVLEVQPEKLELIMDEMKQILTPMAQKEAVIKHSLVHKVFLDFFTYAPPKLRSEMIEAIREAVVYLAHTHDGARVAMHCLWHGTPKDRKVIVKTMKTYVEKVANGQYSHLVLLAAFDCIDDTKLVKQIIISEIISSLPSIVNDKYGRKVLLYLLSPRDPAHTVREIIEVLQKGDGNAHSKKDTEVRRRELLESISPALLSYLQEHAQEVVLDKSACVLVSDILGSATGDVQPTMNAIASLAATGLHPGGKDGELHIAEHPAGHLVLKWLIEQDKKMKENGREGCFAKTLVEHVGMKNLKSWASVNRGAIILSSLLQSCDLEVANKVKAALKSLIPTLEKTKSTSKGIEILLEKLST
UniProt Q9H0K6: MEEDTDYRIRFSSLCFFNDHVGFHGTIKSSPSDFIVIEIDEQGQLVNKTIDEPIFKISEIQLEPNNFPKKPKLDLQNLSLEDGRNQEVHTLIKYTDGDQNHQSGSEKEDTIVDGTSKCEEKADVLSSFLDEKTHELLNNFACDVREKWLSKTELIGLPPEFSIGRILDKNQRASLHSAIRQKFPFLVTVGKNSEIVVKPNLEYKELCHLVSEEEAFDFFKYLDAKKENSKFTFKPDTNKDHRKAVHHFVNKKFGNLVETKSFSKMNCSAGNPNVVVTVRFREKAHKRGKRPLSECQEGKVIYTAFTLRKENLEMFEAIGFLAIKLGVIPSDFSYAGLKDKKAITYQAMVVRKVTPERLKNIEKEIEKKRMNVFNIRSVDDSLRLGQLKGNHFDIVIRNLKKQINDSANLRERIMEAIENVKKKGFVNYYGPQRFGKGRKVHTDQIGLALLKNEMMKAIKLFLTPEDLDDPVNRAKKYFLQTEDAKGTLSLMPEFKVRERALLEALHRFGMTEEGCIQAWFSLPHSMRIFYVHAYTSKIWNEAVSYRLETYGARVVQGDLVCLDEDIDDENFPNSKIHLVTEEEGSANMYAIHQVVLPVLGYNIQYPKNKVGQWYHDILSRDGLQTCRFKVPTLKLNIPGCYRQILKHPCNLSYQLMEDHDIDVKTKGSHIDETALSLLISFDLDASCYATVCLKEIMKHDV
UniProt P49721: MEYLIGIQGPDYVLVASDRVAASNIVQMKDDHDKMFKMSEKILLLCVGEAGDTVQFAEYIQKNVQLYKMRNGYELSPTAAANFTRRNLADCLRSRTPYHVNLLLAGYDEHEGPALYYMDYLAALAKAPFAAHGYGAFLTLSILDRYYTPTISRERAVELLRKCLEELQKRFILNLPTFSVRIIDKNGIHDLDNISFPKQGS
UniProt P18031: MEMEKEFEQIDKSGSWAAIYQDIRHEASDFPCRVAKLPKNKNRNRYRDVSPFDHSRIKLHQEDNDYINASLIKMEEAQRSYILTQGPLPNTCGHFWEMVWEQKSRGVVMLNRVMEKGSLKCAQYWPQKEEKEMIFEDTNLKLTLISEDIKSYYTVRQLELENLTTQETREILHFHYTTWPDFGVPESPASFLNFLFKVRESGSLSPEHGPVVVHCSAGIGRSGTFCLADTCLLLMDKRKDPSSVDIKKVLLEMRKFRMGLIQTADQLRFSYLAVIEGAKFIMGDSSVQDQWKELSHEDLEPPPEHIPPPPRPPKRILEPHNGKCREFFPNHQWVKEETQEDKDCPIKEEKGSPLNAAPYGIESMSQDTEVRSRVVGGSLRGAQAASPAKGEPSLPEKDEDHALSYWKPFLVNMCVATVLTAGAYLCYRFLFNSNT
UniProt Q7Z6K3: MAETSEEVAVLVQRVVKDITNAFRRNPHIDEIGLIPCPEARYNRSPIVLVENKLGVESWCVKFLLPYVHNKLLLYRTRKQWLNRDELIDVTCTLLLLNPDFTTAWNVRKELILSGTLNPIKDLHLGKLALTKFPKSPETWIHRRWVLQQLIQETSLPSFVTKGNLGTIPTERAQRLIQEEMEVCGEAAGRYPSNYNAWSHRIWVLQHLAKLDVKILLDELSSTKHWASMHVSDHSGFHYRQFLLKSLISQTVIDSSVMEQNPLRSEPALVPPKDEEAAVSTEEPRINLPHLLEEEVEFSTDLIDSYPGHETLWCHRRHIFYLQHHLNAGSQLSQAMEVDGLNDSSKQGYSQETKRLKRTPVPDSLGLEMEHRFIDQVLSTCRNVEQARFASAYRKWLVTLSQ
UniProt Q8TBF2: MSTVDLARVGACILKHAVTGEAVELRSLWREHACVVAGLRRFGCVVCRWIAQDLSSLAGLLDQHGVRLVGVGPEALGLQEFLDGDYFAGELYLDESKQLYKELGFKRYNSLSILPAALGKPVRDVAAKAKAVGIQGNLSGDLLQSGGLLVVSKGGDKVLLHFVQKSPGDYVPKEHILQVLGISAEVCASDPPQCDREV
UniProt Q8WV60: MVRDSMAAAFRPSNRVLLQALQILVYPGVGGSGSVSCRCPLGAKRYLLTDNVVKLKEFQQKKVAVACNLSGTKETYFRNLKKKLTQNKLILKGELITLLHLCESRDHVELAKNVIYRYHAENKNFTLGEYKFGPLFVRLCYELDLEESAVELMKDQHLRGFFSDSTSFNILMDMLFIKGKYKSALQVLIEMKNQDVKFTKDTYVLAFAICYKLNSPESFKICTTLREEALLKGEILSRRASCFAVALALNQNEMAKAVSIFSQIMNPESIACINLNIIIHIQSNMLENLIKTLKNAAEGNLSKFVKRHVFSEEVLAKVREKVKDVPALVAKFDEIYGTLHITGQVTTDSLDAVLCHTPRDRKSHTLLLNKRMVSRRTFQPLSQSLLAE
UniProt Q96BW5: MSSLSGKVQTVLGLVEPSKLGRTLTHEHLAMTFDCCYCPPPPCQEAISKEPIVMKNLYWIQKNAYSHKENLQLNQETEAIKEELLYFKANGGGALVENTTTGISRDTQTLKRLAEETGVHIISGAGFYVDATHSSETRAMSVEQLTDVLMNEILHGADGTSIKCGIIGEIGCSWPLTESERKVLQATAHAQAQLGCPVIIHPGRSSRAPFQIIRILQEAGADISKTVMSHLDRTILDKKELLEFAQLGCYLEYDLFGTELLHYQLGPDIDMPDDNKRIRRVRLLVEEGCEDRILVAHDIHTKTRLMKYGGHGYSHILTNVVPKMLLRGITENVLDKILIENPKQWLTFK
UniProt P25788: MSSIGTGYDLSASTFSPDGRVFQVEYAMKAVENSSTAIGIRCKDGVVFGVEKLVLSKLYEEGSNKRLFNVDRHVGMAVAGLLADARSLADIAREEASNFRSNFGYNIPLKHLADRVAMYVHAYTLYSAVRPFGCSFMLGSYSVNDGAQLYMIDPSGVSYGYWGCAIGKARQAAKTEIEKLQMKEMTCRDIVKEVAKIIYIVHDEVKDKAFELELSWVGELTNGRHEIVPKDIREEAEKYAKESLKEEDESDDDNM
UniProt Q06323: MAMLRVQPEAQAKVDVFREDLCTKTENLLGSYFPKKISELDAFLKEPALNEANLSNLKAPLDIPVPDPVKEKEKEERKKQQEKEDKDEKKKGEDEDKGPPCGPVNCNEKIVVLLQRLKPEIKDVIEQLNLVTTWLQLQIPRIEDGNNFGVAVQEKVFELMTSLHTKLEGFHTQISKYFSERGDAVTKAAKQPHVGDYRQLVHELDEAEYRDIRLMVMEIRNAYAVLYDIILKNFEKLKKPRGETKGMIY
UniProt P49720: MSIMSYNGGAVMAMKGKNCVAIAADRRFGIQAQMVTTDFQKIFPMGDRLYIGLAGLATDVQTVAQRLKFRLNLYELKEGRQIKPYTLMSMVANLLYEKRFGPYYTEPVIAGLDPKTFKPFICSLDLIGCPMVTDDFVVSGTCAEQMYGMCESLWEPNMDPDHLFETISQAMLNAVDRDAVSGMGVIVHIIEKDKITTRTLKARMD
UniProt Q00577: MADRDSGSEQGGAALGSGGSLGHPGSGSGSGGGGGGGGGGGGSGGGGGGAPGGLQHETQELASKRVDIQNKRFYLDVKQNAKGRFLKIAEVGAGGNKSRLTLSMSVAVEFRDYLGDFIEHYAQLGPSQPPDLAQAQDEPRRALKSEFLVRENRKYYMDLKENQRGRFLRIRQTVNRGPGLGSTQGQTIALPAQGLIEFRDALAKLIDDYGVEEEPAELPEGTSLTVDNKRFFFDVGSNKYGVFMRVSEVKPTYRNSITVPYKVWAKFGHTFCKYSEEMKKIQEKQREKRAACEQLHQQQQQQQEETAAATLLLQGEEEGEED
UniProt Q14671: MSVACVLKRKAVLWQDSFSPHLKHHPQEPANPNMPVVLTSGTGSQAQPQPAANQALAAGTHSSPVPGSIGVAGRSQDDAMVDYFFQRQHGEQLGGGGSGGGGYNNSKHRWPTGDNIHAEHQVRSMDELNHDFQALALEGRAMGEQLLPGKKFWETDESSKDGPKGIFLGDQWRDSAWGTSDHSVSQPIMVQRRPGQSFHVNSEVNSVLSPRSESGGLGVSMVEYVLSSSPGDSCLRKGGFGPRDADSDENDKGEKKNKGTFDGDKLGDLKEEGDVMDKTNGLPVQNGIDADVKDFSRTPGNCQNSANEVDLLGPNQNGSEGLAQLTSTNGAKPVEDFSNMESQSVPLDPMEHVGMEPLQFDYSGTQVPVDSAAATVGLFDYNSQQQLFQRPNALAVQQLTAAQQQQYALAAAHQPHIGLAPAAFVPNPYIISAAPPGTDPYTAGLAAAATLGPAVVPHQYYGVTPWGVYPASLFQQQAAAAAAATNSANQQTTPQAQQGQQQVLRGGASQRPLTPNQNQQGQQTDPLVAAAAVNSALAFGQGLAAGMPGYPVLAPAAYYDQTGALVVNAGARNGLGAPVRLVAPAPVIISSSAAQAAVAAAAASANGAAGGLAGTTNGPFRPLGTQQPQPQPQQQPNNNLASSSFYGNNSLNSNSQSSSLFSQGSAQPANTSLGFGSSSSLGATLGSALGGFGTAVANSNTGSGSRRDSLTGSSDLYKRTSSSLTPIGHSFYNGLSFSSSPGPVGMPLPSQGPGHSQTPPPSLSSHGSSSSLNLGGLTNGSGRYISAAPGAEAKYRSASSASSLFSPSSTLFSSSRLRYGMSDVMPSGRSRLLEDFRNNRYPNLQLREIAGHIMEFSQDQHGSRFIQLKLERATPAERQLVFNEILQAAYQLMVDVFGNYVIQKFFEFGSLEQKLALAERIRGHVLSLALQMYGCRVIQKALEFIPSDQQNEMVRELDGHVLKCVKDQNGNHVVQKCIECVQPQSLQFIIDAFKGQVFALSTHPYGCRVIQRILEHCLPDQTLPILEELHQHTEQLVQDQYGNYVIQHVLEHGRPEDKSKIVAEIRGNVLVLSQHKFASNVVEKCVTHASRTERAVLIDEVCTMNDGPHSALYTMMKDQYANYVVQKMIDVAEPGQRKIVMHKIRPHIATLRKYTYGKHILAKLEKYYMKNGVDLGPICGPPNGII

[1] = compound: Cc1nc(Nc2n[nH]c3c2CN(C(=O)N[C@H](CN(C)C)c2ccccc2)C3(C)C)c2sccc2n1
Summary of the method: as §1

dasatinib = compound: Cc1nc(Nc2ncc(C(=O)Nc3c(C)cccc3Cl)s2)cc(N2CCN(CCO)CC2)n1 [dasatinib]
Summary of the method: as §1

[2] = compound: Cc1ncc(-c2ccnc(Nc3ccc(S(C)(=O)=O)cc3)n2)n1C(C)C
Summary of the method: as §1

[3] = compound: Cn1cc(-c2ccc3c(c2)CCN3C(=O)Cc2cccc(C(F)(F)F)c2)c2c(N)ncnc21
Summary of the method: as §1

quisinostat = compound: Cn1cc(CNCC2CCN(c3ncc(C(=O)NO)cn3)CC2)c2ccccc21 [quisinostat]
Summary of the method: as §1

tipifarnib = compound: Cn1cncc1[C@@](N)(c1ccc(Cl)cc1)c1ccc2c(c1)c(-c1cccc(Cl)c1)cc(=O)n2C [tipifarnib]
Summary of the method: as §1

[4] = compound: NC(=O)Nc1cc(-c2cccc(F)c2)sc1C(=O)N[C@H]1CCCNC1
Summary of the method: as §1

[5] = compound: NC(=O)c1cnc(N[C@@H]2CCCC[C@@H]2N)nc1Nc1cccc(-n2nccn2)c1
Summary of the method: as §1

[6] = compound: NC1(c2ccc(-c3nc4ccn5c(=O)[nH]nc5c4cc3-c3ccccc3)cc2)CCC1
Summary of the method: as §1

[7] = compound: NCC(=O)Nc1ccc(-n2nc(C(F)(F)F)cc2-c2ccc3c(ccc4ccccc43)c2)cc1
Summary of the method: as §1

vorinostat = compound: O=C(CCCCCCC(=O)Nc1ccccc1)NO [vorinostat]
Summary of the method: as §1

silmitasertib = compound: O=C(O)c1ccc2c(c1)nc(Nc1cccc(Cl)c1)c1ccncc12 [silmitasertib]
Summary of the method: as §1

[8] = compound: O=C1NC(=O)C(c2cnc3ccccn23)=C1c1cn2c3c(cc(F)cc13)CN(C(=O)N1CCCCC1)CC2
Summary of the method: as §1

entospletinib = compound: c1cn2cc(-c3ccc4cn[nH]c4c3)nc(Nc3ccc(N4CCOCC4)cc3)c2n1 [entospletinib]
Summary of the method: as §1

Target | log2 fold change (nilotinib) | log2 fold change [1] | log2 fold change (dasatinib) | log2 fold change [2] | log2 fold change [3] | log2 fold change (quisinostat) | log2 fold change (tipifarnib) | log2 fold change [4] | log2 fold change [5] | log2 fold change [6] | log2 fold change [7] | log2 fold change (vorinostat) | log2 fold change (silmitasertib) | log2 fold change [8] | log2 fold change (entospletinib)
PSMC1 (UniProt P62191) | inactive: 0.023 | inactive: 0.01 | inactive: -0.017 | inactive: -0.011 | inactive: 0.016 | inactive: -0.007 | inactive: 0.008 | inactive: 0.015 | inactive: -0.008 | inactive: -0.009 | inactive: 0.025 | inactive: 0.039 | inactive: 0.009 | inactive: 0.004 | inactive: 0.022
PSIP1 (UniProt O75475) | inactive: 0.051 | inactive: 0.013 | inactive: -0.024 | inactive: 0.057 | inactive: 0.025 | inactive: -0.055 | inactive: -0.008 | inactive: -0.018 | inactive: 0 | inactive: 0.001 | inactive: 0.046 | inactive: 0.097 | inactive: -0.019 | inactive: -0.024 | inactive: -0.004
PUM3 (UniProt Q15397) | inactive: 0.031 | inactive: 0.014 | inactive: -0.001 | inactive: -0.002 | inactive: 0.069 | inactive: 0.03 | inactive: -0.047 | inactive: 0.056 | inactive: -0.001 | inactive: -0.063 | inactive: 0 | inactive: -0.014 | inactive: -0.013 | inactive: -0.005 | inactive: -0.007
PUS7L (UniProt Q9H0K6) | inactive: -0.06 | inactive: 0.022 | inactive: 0.004 | inactive: 0 | inactive: -0.004 | inactive: 0.019 | inactive: 0.027 | inactive: 0.005 | inactive: -0.003 | inactive: -0.001 | inactive: 0.054 | inactive: -0.087 | inactive: -0.009 | inactive: -0.017 | inactive: -0.016
PTPN18 (UniProt Q99952) | inactive: 0.021 | inactive: -0.043 | inactive: -0.048 | inactive: -0.006 | inactive: -0.039 | inactive: -0.121 | inactive: 0.063 | inactive: 0.049 | inactive: 0.028 | inactive: 0.001 | inactive: 0.038 | inactive: -0.068 | inactive: 0.086 | inactive: -0.045 | inactive: -0.009
PSMB2 (UniProt P49721) | inactive: 0.059 | inactive: -0.011 | inactive: 0.022 | inactive: 0.024 | inactive: -0.06 | inactive: 0.001 | inactive: 0.001 | inactive: -0.066 | inactive: -0.021 | inactive: 0.005 | inactive: -0.047 | inactive: 0.103 | inactive: -0.009 | inactive: 0.004 | inactive: -0.054
PTPN1 (UniProt P18031) | inactive: -0.001 | inactive: 0.019 | inactive: -0.062 | inactive: 0.007 | inactive: 0.027 | inactive: -0.051 | inactive: -0.032 | inactive: 0.039 | inactive: 0.026 | inactive: 0.021 | inactive: -0.005 | active: -0.29 | inactive: 0.04 | inactive: 0.012 | inactive: 0.048
PTAR1 (UniProt Q7Z6K3) | inactive: 0.027 | inactive: -0.032 | inactive: 0.144 | inactive: -0.03 | inactive: -0.014 | inactive: -0.071 | inactive: 0.02 | inactive: 0.021 | inactive: 0.008 | inactive: 0.034 | inactive: 0.053 | inactive: -0.029 | inactive: 0.009 | inactive: 0.033 | inactive: 0.086
PRPS1 (UniProt B1ALA9) | inactive: 0.071 | inactive: -0.052 | inactive: -0.034 | inactive: 0.038 | inactive: 0.014 | inactive: 0.003 | inactive: 0.057 | inactive: -0.013 | inactive: -0.014 | inactive: -0.001 | inactive: -0.005 | inactive: -0.119 | inactive: 0.013 | inactive: -0.014 | inactive: -0.003
PRXL2B isoform 3 (UniProt Q8TBF2) | inactive: 0.027 | inactive: -0.057 | inactive: -0.083 | inactive: -0.028 | inactive: 0.01 | inactive: -0.03 | inactive: -0.015 | inactive: -0.021 | inactive: 0.02 | inactive: -0.018 | inactive: 0.094 | inactive: -0.165 | inactive: 0.029 | inactive: 0.07 | inactive: 0.01
PRPH isoform 2 (UniProt P41219) | inactive: -0.022 | inactive: 0.032 | inactive: -0.019 | inactive: -0.024 | inactive: 0.036 | inactive: 0.034 | inactive: -0.02 | inactive: -0.027 | inactive: 0.028 | inactive: 0.094 | inactive: 0 | inactive: 0.112 | inactive: 0.001 | inactive: -0.098 | inactive: -0.052
PTCD2 (UniProt Q8WV60) | inactive: -0.241 | inactive: -0.151 | inactive: -0.059 | inactive: 0 | inactive: 0.115 | inactive: -0.009 | inactive: 0.103 | inactive: 0.126 | inactive: -0.112 | inactive: -0.029 | inactive: 0.055 | inactive: -0.38 | inactive: -0.037 | inactive: 0.078 | inactive: -0.052
PTER (UniProt Q96BW5) | inactive: 0.026 | inactive: -0.012 | inactive: 0 | inactive: -0.004 | inactive: 0.009 | inactive: -0.01 | inactive: 0.02 | inactive: 0.008 | inactive: -0.007 | inactive: 0.027 | inactive: 0.027 | inactive: 0.117 | inactive: 0.011 | inactive: -0.046 | inactive: 0.01
PSMA3 (UniProt P25788) | inactive: 0.014 | inactive: -0.002 | inactive: 0.006 | inactive: -0.021 | inactive: 0.004 | inactive: 0.05 | inactive: 0.029 | inactive: -0.025 | inactive: -0.015 | inactive: 0.018 | inactive: -0.039 | inactive: 0.091 | inactive: 0 | inactive: -0.028 | inactive: 0.023
PSME1 (UniProt Q06323) | inactive: 0.026 | inactive: -0.004 | inactive: 0.052 | inactive: -0.012 | inactive: 0.016 | inactive: 0.041 | inactive: 0.027 | inactive: -0.007 | inactive: -0.009 | inactive: 0.022 | inactive: -0.019 | inactive: -0.007 | inactive: 0.011 | inactive: -0.017 | inactive: 0.006
PSMB3 (UniProt P49720) | inactive: 0.042 | inactive: -0.011 | inactive: 0.003 | inactive: 0.01 | inactive: 0.002 | inactive: 0.012 | inactive: -0.028 | inactive: -0.023 | inactive: -0.007 | inactive: -0.006 | inactive: -0.014 | inactive: 0.126 | inactive: -0.025 | inactive: -0.021 | inactive: 0.03
PURA (UniProt Q00577) | inactive: -0.056 | inactive: 0.032 | inactive: 0.028 | inactive: -0.046 | inactive: 0.062 | inactive: 0.008 | inactive: -0.027 | inactive: -0.033 | inactive: 0.01 | inactive: -0.04 | inactive: -0.064 | inactive: 0.141 | inactive: 0.006 | inactive: -0.028 | inactive: -0.013
PUM1 isoform 3 (UniProt Q14671) | inactive: -0.072 | inactive: -0.012 | inactive: -0.027 | inactive: 0.03 | inactive: 0.016 | inactive: 0.01 | inactive: -0.057 | inactive: 0.004 | inactive: -0.021 | inactive: 0.028 | inactive: 0.027 | inactive: -0.192 | inactive: 0 | inactive: -0.004 | inactive: -0.009
PSMD11 (UniProt O00231) | inactive: 0.017 | inactive: -0.016 | inactive: -0.013 | inactive: 0.01 | inactive: 0.029 | inactive: 0.094 | inactive: 0.001 | inactive: 0.013 | inactive: -0.002 | inactive: 0.023 | inactive: 0.015 | inactive: 0.015 | inactive: 0.006 | inactive: 0.032 | inactive: 0.012

Single records, as listed above. Order of values: log2 fold change (nilotinib) | log2 fold change [1] | log2 fold change (dasatinib) | log2 fold change [2] | log2 fold change [3] | log2 fold change (quisinostat) | log2 fold change (tipifarnib) | log2 fold change [4] | log2 fold change [5] | log2 fold change [6] | log2 fold change [7] | log2 fold change (vorinostat) | log2 fold change (silmitasertib) | log2 fold change [8] | log2 fold change (entospletinib)
PTER (UniProt Q96BW5) is listed as inactive: 0.026 | inactive: -0.012 | inactive: 0 | inactive: -0.004 | inactive: 0.009 | inactive: -0.01 | inactive: 0.02 | inactive: 0.008 | inactive: -0.007 | inactive: 0.027 | inactive: 0.027 | inactive: 0.117 | inactive: 0.011 | inactive: -0.046 | inactive: 0.01
PTPN1 (UniProt P18031) is listed as inactive: -0.001 | inactive: 0.019 | inactive: -0.062 | inactive: 0.007 | inactive: 0.027 | inactive: -0.051 | inactive: -0.032 | inactive: 0.039 | inactive: 0.026 | inactive: 0.021 | inactive: -0.005 | active: -0.29 | inactive: 0.04 | inactive: 0.012 | inactive: 0.048

Source: the supplement of paper PMC10849652
